Test results: patent publication US20040072333A1, “Method of purifying lantibiotics” (ImmuCell Corporation, priority 2002, published 2004)
At least one read-out could not be matched to a standard name with certainty.

System: trypsin
Experiment: Soluble trypsin digestion at low pH and low trypsin to nisin ratio, HPLC
Format: physicochemical
Settings: 4.55 mg/ml, 25 mg USP grade trypsin, 16 hrs, 30° C., 10 mM citric acid, pH 5.80
Description: Peptide analysis has identified over 40 peptides that co-purify with nisin. All of these peptides have been identified as being products of Lactococcus fermentation. Since it was determined that nisin, at neutral to slightly alkaline pH and high trypsin to nisin ratios, is subject to proteolysis by trypsin, conditions were altered in an attempt to identify conditions under which trypsin would not degrade nisin but would degrade the peptide impurities in the nisin sample. Reaction mixtures containing nisin preparations, at a concentration of 11 mg/ml, and USP grade trypsin at a concentration of 27.5 μg/ml, were incubated overnight at room temperature (400:1 w/w). The pH of the mixtures ranged from 5.25 to 6.5.
To further optimize the conditions for removal of peptide impurities from nisin preparations by tryptic digestion, two liters of partially purified nisin was prepared at 4.55 mg/ml and incubated with 25 mg of USP grade trypsin for 16 hrs at 30° C. in 10 mM citric acid, pH 5.80. […] Moreover, subsequent removal of trypsin using a molecular weight cut off membrane yielded a recovery of 87.5% nisin and 0.38% trypsin.
For treatment of nisin with soluble trypsin, 2 liters of partially purified nisin from a fermentation product was prepared at 4.55 mg/ml in 10 mM citric acid buffer and 5 mM CaCl2. […] Nisin recovery and purity was determined by SDS-PAGE and HPLC. […]

Substance: nisin (ITSISLCTPGCKTGALMGCNMKTATCHCSIHVSK; Lantibiotic nisin-A; UniProt P13068 24-57, looked up) [lysine-rich lantibiotic, polypeptide antimicrobial agent with lanthionine and β-methyl-lanthionine residues, used as food preservative]
- overall nisin recovery after trypsin incubation (HPLC): about 95%
